# Source: the supplement of paper PMC6411743
# ± gives the standard deviation of the averaged measurements. Only a part is listed here, and it is no random draw.
# Columns and labels:
# Assay in all cases: NP40-soluble protein abundance relative to vehicle (solubility fold change) (ratio); higher = more soluble protein in presence of AMP-PNP
# UniProt Q9BXJ9 = target: T1, UniProt Q9BXJ9; details: concentration: 10mM
# T1 sequence (whole entry): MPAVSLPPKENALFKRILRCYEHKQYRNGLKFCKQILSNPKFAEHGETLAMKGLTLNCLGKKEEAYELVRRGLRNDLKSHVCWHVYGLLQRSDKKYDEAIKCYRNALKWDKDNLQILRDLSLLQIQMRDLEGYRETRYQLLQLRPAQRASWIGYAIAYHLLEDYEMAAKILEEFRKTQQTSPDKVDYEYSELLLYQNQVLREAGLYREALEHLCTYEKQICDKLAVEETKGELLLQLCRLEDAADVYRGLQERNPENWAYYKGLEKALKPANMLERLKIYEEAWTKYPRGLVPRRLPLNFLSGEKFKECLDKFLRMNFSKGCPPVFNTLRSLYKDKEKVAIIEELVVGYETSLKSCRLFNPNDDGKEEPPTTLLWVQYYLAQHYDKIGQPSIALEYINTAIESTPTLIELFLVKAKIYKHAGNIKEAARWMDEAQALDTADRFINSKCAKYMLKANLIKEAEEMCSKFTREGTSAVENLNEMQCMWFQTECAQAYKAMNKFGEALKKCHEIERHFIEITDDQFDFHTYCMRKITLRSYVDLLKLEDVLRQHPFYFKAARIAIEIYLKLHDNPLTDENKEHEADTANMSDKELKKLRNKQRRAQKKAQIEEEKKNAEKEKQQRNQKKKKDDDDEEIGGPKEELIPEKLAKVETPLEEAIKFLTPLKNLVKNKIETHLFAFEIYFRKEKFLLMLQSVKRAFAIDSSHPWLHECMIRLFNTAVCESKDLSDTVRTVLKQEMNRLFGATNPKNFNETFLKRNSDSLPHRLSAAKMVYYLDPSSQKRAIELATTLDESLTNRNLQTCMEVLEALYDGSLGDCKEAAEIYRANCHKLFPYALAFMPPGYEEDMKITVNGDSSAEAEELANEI
# In short: (§1)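 Jurkat crude lysate prepared with a Dounce homogeniser was treated at eight concentrations spanning 0.1 to 10 mM, 10 min at room temperature then 3 min at 37 °C. Solubilisation with 0.8% NP40 and benzonase and ultracentrifugation preceded TMT labelling of the supernatant for LC-MS/MS. Fold change against the detergent-processed vehicle was determined per replicate from vsn-normalised intensities, across three independent experiments.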
# [1] = target: T2, UniProt Q9BXP5-3|Q9BXP5-4
# T2 sequence (whole entry): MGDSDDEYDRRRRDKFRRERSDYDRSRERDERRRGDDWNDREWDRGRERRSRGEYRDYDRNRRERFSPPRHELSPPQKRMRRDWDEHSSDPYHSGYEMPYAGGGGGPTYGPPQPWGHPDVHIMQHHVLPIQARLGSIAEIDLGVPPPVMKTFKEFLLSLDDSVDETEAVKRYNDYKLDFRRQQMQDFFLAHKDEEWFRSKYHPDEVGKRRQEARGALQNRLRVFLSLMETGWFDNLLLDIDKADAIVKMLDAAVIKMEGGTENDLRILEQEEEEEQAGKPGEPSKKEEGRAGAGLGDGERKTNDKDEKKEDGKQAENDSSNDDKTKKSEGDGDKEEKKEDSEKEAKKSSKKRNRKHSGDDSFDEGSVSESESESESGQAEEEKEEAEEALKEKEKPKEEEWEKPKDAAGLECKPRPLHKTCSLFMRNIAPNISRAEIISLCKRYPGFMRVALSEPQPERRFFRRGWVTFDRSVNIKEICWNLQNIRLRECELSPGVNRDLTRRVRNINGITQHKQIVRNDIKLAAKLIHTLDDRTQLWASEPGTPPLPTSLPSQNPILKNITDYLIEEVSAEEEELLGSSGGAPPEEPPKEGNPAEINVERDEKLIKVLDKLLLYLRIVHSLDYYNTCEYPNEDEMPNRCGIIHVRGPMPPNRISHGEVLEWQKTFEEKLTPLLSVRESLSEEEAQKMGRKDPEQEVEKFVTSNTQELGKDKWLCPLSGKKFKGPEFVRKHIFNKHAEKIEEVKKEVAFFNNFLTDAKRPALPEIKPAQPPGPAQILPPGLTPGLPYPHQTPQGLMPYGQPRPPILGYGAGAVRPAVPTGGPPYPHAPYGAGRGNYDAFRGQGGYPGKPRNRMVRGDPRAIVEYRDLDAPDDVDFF
# In short: as §1
# [2] = target: T3, UniProt Q9BY77 and related entries
# T3 sequence (whole entry): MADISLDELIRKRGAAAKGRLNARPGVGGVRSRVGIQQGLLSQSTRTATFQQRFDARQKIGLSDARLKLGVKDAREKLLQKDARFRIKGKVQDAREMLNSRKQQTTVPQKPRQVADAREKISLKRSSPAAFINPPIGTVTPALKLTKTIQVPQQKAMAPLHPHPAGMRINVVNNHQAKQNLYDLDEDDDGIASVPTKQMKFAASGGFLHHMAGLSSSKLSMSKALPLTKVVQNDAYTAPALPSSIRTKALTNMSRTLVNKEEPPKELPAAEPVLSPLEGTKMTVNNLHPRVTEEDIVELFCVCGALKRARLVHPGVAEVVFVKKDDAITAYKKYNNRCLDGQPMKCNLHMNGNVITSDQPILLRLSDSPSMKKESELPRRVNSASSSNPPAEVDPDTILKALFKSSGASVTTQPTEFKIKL
# In short: as §1
# UniProt Q9BZ67-2 = target: T4, UniProt Q9BZ67-2
# T4 sequence (whole entry): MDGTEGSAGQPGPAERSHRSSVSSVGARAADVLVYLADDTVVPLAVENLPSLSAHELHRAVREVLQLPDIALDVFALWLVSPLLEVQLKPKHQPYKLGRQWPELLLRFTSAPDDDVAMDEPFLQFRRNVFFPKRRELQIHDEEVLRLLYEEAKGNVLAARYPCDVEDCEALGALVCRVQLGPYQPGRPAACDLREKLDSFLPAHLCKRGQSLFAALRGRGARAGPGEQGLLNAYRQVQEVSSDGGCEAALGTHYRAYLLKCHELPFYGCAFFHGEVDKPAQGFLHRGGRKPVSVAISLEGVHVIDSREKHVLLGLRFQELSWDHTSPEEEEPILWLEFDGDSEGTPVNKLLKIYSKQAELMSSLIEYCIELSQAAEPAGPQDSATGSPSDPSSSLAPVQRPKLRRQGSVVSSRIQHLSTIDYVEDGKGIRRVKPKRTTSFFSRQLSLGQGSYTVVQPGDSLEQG
# In short: as §1
# VRK1 = target: T5, VRK1 (UniProt Q99986)
# T5 sequence (whole entry): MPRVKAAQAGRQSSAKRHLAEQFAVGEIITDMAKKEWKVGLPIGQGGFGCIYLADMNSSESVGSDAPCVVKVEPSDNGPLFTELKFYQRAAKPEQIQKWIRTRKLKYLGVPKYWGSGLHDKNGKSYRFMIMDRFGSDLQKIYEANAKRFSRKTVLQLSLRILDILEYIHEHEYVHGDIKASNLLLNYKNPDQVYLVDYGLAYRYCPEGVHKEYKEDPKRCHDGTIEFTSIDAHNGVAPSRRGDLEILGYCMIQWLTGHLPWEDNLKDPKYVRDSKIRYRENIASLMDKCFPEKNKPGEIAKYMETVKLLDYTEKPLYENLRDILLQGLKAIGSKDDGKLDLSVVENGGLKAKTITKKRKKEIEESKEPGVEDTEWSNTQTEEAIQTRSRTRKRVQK
# In short: as §1
smiles,measurement,setting,value
Nc1ncnc2c1ncn2[C@@H]1O[C@H](COP(=O)(O)OP(=O)(O)NP(=O)(O)O)[C@@H](O)[C@H]1O [adenylyl imidodiphosphate],NP40-soluble protein abundance,UniProt Q9BXJ9,1.04 ± 0.051
same,NP40-soluble protein abundance,[1]; concentration: 1mM,1.04 ± 0.049
same,NP40-soluble protein abundance,[1]; concentration: 2mM,1.09 ± 0.09
same,NP40-soluble protein abundance,[1]; concentration: 4mM,1.1 ± 0.068
same,NP40-soluble protein abundance,[1]; concentration: 6mM,1.199 ± 0.0062
same,NP40-soluble protein abundance,[1]; concentration: 8mM,1.23 ± 0.025
same,NP40-soluble protein abundance,[1]; concentration: 10mM,1.24 ± 0.072
same,NP40-soluble protein abundance,[2]; concentration: 1mM,1 ± 0.038
same,NP40-soluble protein abundance,[2]; concentration: 2mM,1.06 ± 0.064
same,NP40-soluble protein abundance,[2]; concentration: 4mM,1.04 ± 0.042
same,NP40-soluble protein abundance,[2]; concentration: 6mM,1.17 ± 0.016
same,NP40-soluble protein abundance,[2]; concentration: 8mM,1.24 ± 0.028
same,NP40-soluble protein abundance,[2]; concentration: 10mM,1.37 ± 0.081
same,NP40-soluble protein abundance,UniProt Q9BZ67-2; concentration: 1mM,0.994 ± 0.024
same,NP40-soluble protein abundance,UniProt Q9BZ67-2; concentration: 2mM,0.99655 ± 0.0008
same,NP40-soluble protein abundance,UniProt Q9BZ67-2; concentration: 4mM,0.992 ± 0.02
same,NP40-soluble protein abundance,UniProt Q9BZ67-2; concentration: 6mM,0.992 ± 0.037
same,NP40-soluble protein abundance,UniProt Q9BZ67-2; concentration: 8mM,1.01 ± 0.025
same,NP40-soluble protein abundance,UniProt Q9BZ67-2; concentration: 10mM,0.9867 ± 0.0026
same,NP40-soluble protein abundance,VRK1; concentration: 1mM,1.08 ± 0.036
same,NP40-soluble protein abundance,VRK1; concentration: 2mM,1.1 ± 0.078
same,NP40-soluble protein abundance,VRK1; concentration: 4mM,1.22 ± 0.03
same,NP40-soluble protein abundance,VRK1; concentration: 6mM,1.43 ± 0.061
same,NP40-soluble protein abundance,VRK1; concentration: 8mM,1.51 ± 0.11
same,NP40-soluble protein abundance,VRK1; concentration: 10mM,1.56 ± 0.1

# In a second layout: results already given.
smiles	measurement	setting	value
Nc1ncnc2c1ncn2[C@@H]1O[C@H](COP(=O)(O)OP(=O)(O)NP(=O)(O)O)[C@@H](O)[C@H]1O [adenylyl imidodiphosphate]	NP40-soluble protein abundance	UniProt Q9BZ67-2; concentration: 4mM	0.992 ± 0.02
same	NP40-soluble protein abundance	UniProt Q9BZ67-2; concentration: 6mM	0.992 ± 0.037
